Primary screen of a compound library

Source: ChEMBL document CHEMBL3988442, “University of Dundee, Small-Polar-MMV Screening Library” (2021).

Values are the deposited “Percent Effect”, in %.
The record does not define 0% and 100%; most values in the screen are far below 50% and negative numbers occur (in some assays of this library far below -100).
The compounds are a random part of those screened.

A: 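Whole-cell assay for inhibitors of Mycobacterium tuberculosis growth, labelled Cornell in the record; the read-out is not stated. The concentration is filed as 10 mM, unlikely as a test dose, so the dose is not known. Higher means stronger inhibition (inferred from two other growth screens of the library). About 53,000 compounds were tested under these conditions; 1.7% (about 900) showed 50% or more at least once.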
B: 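Assay on Mycobacterium tuberculosis, filed only as a heat shock assay from Cornell; the read-out is not stated. The concentration is filed as 10 mM, unlikely as a test dose, so the dose is not known. Direction is inferred from retests: higher values go with stronger inhibition. Size under these conditions: about 69,000 compounds, about 930 of them at 50% or above in at least one test.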

CC(CNC(=O)c1cnccn1)Oc1ccc(F)cc1 (stereo not given) read A: 6.4%; B: 29.5%.
Cc1cccc2c1ccn2CC(=O)O read A: -12.22%; B: -10.54%.
CCN1CCOC(CNCc2csc(C)n2)C1 (stereo not given) read B: 3.627%.
CCc1csc(C2CCCN(C(=O)c3cc(C4CC4)[nH]n3)C2)n1 (stereo not given) read A: 2.609%; B: 1.203%.
[H][C@@]12C[C@@H](C(=O)NC(C)C)C[C@@]1([H])N(Cc1ccncc1)CCO2 read A: -2.384%; B: -25.91%.
Cc1sc(C(=O)O)cc1S(=O)(=O)Nc1c(F)cccc1-n1cccn1 read A: -24.9%; B: -18.56%.
O=C(O)C(F)(F)F.[H][C@@]12CN(Cc3sccc3C)C[C@H](C(=O)NCCOC)[C@]1([H])CCO2 read A: -17.87%; B: -45.09%.
Cc1cc(C2CCCN(C(=O)CN3CCN(C)CC3)C2)n[nH]1 (stereo not given) read A: 16.67%; B: -3.907%.
[H][C@@]12CCN(C(=O)COc3ccc(C)cc3)C[C@]1(COC)CCO2 read A: -21.81%; B: -65.62%.
CCC(=O)N1CCC(Cc2ccccc2-c2cccc(C)c2)(C(N)=O)C1 (stereo not given) read A: -36.47%; B: -18.42%.
CC(C)n1cnnc1CN(C)C(=O)C1CCCN(CC(N)=O)C1 (stereo not given) read A: 4.265%; B: 1.983%.
CN(CCCOc1ccccc1Cl)C(=O)CN1CCNC1=O read B: -7.841%.
Cc1nnc(CN2CCCC(c3noc(C4CC4)n3)C2)o1 (stereo not given) read B: 9.728%.
Cl.Cn1ccnc1N1CCN(C(=O)Cc2ccc(F)cc2)CC1 read A: 13.06%; B: 2.971%.
COCCN1CC2(CCC1=O)CCN(Cc1nnc(C)o1)CC2 read A: -28.47%; B: 10.07%.
CCCOC(=O)N1CCn2nc(-c3nc4ccccc4n3C)cc2C1 read A: -0.8559%; B: -9.156%.
CCn1c(C2CCCN(Cc3nccn3CCOC)C2)nn(C)c1=O (stereo not given) read A: 13.05%; B: -3.206%.
CCO[C@H]1CN(C)C[C@@H]1NC(=O)c1cc(C)nc2c(C)cccc12 read A: -36.17%; B: 18.09%.
CC(=O)NCC(=O)N1Cc2c(-c3cccc(C)c3)nc(N)nc2C1C (stereo not given) read A: -0.6105%; B: -7.253%.
CCc1nc2ccccc2n1C(CC)C(=O)N(C)Cc1nc(C)c[nH]1 (stereo not given) read A: -11.94%; B: 2.283%.
COCCN1C(=O)c2ccc(C(=O)NCCc3c[nH]cn3)cc2C1=O read A: -7.467%; B: 9.562%.
CC(C)N1CC(C(=O)NCCc2csc(-c3ccncc3)n2)CC1=O (stereo not given) read A: -55.73%; B: -7.241%.
CCNc1nc(-c2cccnc2)c(-c2ccnc(NS(C)(=O)=O)n2)s1 read A: 3.562%; B: -10.98%.
O=C(CCc1nc(Cl)n[nH]1)N1CCC2(CCCN(CC3CCC3)C2=O)C1 (stereo not given) read A: 25.41%; B: -14.07%.
Cc1nc(-c2ccc(C(=O)O)cc2)cc(C2CCN(C(C)C)C2)n1 (stereo not given) read B: -23.1%.
CNC(=O)C(C)(C)CNC(=O)Nc1cc(C)ccn1 read A: 6.53%; B: 8.806%.
O=C(O)C(F)(F)F.[H][C@@]12CCN(Cc3ccoc3)CC[C@]1([H])[C@@H](COC)CN(CC1CC1)C2=O read A: 28.4%; B: -23.49%.
Cc1nn(C)c(Oc2cccc(F)c2)c1NC(=O)C1CCOCC1 read A: 25%; B: -3.366%.
COc1cccc(CN(C)CC(=O)NC2(C)CCS(=O)(=O)C2)c1 (stereo not given) read A: 7.456%; B: -13.49%.
CN(C(=O)c1ccc(S(=O)(=O)NC(C)(C)C)cc1)C1(C#N)CCC1 read A: -5.016%; B: -13.73%.
Cc1nc(-c2cccc(N3CCC(NC4CCOCC4)CC3)c2)cs1 read A: 35.61%; B: -0.7637%.
Cc1cc(=O)c2ccccc2n1CC1CCCN(C)C1 (stereo not given) read A: -1.694%; B: 5.422%.
CN(CC1CCOC1)S(=O)(=O)c1cccc(C(=O)N2CCOCC2)c1 (stereo not given) read A: 9.893%; B: -2.11%.
CCOc1ccc(NC(=O)c2oc(CC)cc2C)cc1CO read A: 34.25%; B: -1.593%.
CC(=O)N1CCC(CCNC(C)Cc2ccc(F)cc2)CC1 (stereo not given) read A: 16.39%; B: -2.726%.
CCOc1cc(C)nc(N2CCN(C(=O)c3ccncc3)CC2)n1 read B: -24.25%.

Once more, the final 3:

{"compound": "CCOc1ccc(NC(=O)c2oc(CC)cc2C)cc1CO", "A": 34.25, "B": -1.593}
{"compound": "CC(=O)N1CCC(CCNC(C)Cc2ccc(F)cc2)CC1", "stereo": "stereo not given", "A": 16.39, "B": -2.726}
{"compound": "CCOc1cc(C)nc(N2CCN(C(=O)c3ccncc3)CC2)n1", "B": -24.25}